No constants are given. Whether binding was seen depends on the method and setting. Binding seen in cells or lysates may run through a third protein. Some results given as binding are weak or reduced against the parent protein; the word gives no strength.
Molecular target: HA-NEDD4 (neuronal precursor cell-expressed, developmentally down-regulated gene 4, E3 ubiquitin ligase) (UniProt P46934)
Experiment: co-IP; HEK293 cells co-expressing RER1 and NEDD4; NEDD4 immunoprecipitated, RER1 detected by blot; negative control with nonreactive serum; 1% CHAPS, 50 mM Tris pH 7.4, 150 mM NaCl, 5 mM EDTA, 4°C overnight, Protein A agarose

Amino acid sequences for entries named in this document (tags omitted).
UniProt P46934: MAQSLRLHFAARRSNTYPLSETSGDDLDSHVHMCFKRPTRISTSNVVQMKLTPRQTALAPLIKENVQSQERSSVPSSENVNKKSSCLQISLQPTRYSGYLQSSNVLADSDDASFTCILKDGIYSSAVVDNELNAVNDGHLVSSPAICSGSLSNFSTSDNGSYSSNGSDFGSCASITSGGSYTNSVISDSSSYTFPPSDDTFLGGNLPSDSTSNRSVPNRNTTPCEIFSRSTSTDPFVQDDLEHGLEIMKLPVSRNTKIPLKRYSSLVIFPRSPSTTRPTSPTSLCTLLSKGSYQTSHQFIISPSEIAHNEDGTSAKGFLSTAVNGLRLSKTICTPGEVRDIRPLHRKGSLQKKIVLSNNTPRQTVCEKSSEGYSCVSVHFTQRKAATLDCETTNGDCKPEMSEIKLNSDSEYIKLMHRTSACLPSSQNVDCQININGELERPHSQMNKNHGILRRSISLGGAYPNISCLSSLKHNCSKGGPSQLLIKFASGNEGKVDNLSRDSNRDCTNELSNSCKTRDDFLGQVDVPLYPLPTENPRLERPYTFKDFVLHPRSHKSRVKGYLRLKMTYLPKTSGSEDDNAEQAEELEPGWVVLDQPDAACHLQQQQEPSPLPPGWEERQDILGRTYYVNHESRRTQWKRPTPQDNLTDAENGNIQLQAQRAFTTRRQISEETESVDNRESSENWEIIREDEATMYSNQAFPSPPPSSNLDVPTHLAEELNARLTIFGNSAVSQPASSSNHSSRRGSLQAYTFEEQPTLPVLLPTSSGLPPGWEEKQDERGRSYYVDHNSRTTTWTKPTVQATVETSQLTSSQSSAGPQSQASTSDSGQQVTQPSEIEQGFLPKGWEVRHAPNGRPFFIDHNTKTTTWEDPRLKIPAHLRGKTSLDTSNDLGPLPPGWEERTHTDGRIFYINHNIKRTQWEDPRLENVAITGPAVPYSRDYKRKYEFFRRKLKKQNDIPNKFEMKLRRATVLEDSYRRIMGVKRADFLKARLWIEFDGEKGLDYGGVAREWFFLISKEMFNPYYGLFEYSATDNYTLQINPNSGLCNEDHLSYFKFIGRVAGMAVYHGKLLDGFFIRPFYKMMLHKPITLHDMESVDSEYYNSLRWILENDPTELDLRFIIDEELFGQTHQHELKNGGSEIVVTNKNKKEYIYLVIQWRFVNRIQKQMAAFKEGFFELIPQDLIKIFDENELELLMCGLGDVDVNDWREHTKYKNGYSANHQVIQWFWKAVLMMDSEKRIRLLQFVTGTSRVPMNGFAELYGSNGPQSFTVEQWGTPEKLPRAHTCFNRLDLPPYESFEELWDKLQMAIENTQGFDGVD

- binding: binds
B1: Retention in endoplasmic reticulum 1 (RER1), human wild type (protein, UniProt O15258 1-196)
chain: MSEGDSVGESVHGKPSVVYRFFTRLGQIYQSWLDKSTPYTAVRWVVTLGLSFVYMIRVYLLQGWYIVTYALGIYHLNLFIAFLSPKVDPSLMEDSDDGPSLPTKQNEEFRPFIRRLPEFKFWHAATKGILVAMVCTFFDAFNVPVFWPILVMYFIMLFCITMKRQIKHMIKYRYIPFTHGKRRYRGKEDAGKAFAS
